According to US11192849B2, “Compounds, compositions, and methods for modulating ferroptosis and treating excitotoxic disorders” (THE TRUSTEES OF COLUMBIA UNIVERSITY IN THE CITY OF NEW YORK, priority 2013, dated 2021):

Tested on: mice, IRI of the cremaster muscle
Assay: In vivo microscopy on the postischemic cremaster muscle
Parameters: species or system mouse
Method: The surgical preparation of the cremaster muscle was performed as originally described by Baez with minor modifications (Traykova-Brauch et al., 2008; Mulay et al., 2013). Mice were anesthetized using a ketamine/xylazine mixture (100 mg/kg ketamine and 10 mg/kg xylazine), administrated by i.p. injection. The left femoral artery was cannulated in a retrograde manner for administration of microspheres and drugs. The right cremaster muscle was exposed through a ventral incision of the scrotum. The muscle was opened ventrally in a relatively avascular zone, using careful electrocautery to stop any bleeding, and spread over the transparent pedestal of a custom-made microscopic stage. Epididymis and testicle were detached from the cremaster muscle and placed into the abdominal cavity. Throughout the procedure as well as after surgical preparation during in vivo microscopy, the muscle was superfused with warm-buffered saline.
The setup for in vivo microscopy was centered around equipment for stroboscopic fluorescence epiillumination microscopy. Light from a 75-W xenon source was narrowed to a near monochromatic beam of a wavelength of 700 nm by a galvanometric scanner (Polychrome II; TILL Photonics) and directed onto the specimen via an FITC filter cube equipped with dichroic and emission filters (DCLP 500, LP515; Olympus). Microscopy images were obtained with Olympus water immersion lenses (20×/numerical aperture (N.A.) 0.5 and 10×/N.A. 0.3) and recorded with an analog black-and-white charge-coupled device (CCD) video camera (Cohu 4920; Cohu) and an analog video recorder (AG-7350-E; Panasonic). […] For measurement of centerline blood flow velocity, green fluorescent microspheres (2-μm diameter; Molecular Probes) were injected via the femoral artery catheter, and their passage through the vessels of interest was recorded using the FITC filter cube under appropriate stroboscopic illumination (exposure, 1 ms; cycle time, 10 ms; length of the electromagnetic wave, 488 nm), integrating video images for sufficient time (>80 ms) to allow for the recording of several images of the same bead on one frame. […]
For off-line analysis of parameters describing the sequential steps of leukocyte extravasation, Cap-Image image analysis software (Dr. Zeintl Biomedical Engineering) was used. Rolling leukocytes were defined as those moving slower than the associated blood flow and were quantified as described previously (Mulay et al., 2013). Firmly adherent cells were determined as those resting in the associated blood flow for more than 30 s and related to the luminal surface per 100-μm vessel length. Transmigrated cells were counted in regions of interest (ROI), covering 75 μm on both sides of a vessel over a 100-μm vessel length. […]

[1] = ferrostatin-1 2 mg/kg i.p. 30 min before

CCOC(=O)c1ccc(NC2CCCCC2)c(N)c1 [SRS8-28 (Fer-1), ethyl 3-amino-4-(cyclohexylamino)benzoate]
Shear rate [1]: 1272.0 ± 167.3 s⁻¹
Vmean (mm^−1 s^−1) [1]: 0.8 ± 0.2 mm^−1 s^−1
Inner diameter (μm) (ferrostatin-1 2 mg/kg i.p. 30 min before, postcapillary venules): 25.9 ± 1.6 μm
SLC (n × 10^−8/μl) (systemic leukocyte counts, ferrostatin-1 2 mg/kg i.p.): 1.6 ± 1.5 n × 10^−8/μl
